{
  "source": "PubChem BioAssay AID1347076",
  "about": "(National Center for Advancing Translational Sciences (NCATS), 2019)",
  "note": "Screen size: about 400,000 compounds; about 13,000 (3.2%) were called active. The inconclusive results got no clear call from the source; some entries with a clear call stand among them for comparison. Calls come from the whole dose curve; as a rule, active = well fitted cell-killing curve with a large enough effect; inconclusive = small, poorly fitted or top-dose-only effect, or effect the other way; inactive = flat fitted curve, though single readings scatter. Potencies beside an inconclusive call are fits to weak or partial responses and may not hold up. Potency is the fitted concentration of half-maximal effect.",
  "data": [
    {"experiment": "qHTS assay for MDR1-selective chemotherapeutics: Primary screen using the drug-selected MDR subline cells KB-V1; note: nearly all actives have a fitted effect of over 60% in size", "settings": "KB-V1 MDR cells viability, CellTiter-Glo, 72 h; series mostly up to 46.1 µM", "summary_of_the_method": "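KB-V1, DMEM (no phenol red) + 10% FBS; cpd pin-transferred, titration series; 72 h, 37 degrees C; CellTiter-Glo, luminescence. Data normalized, curve-fit.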", "values": [
      {"smiles": "O=C(COc1ccc(Cl)cc1)Nc1nnc2n1CCS2", "Potency": "inconclusive: 29.1 µM [cytotoxic, single point]"},
      {"smiles": "CC(C)CCN(C(=S)Nc1cccc(F)c1)C1CCN(C(C)C)CC1", "Potency": "inconclusive: 18.4 µM [cytotoxic, partial curve, poor fit]"},
      {"smiles": "CN(c1ccccc1)S(=O)(=O)c1cccc(C(=O)NNC(=O)c2ccncc2)c1", "Potency": "inconclusive: 14.6 µM [rising, partial curve]"},
      {"smiles": "O=C(NCC(c1ccco1)N1CCc2ccccc21)c1cccc(F)c1", "note": "(centres undefined)", "Potency": "inconclusive: 2.59 µM [cytotoxic, full curve, poor fit]"},
      {"smiles": "CCc1ccc(OCC(=O)O/N=C(\\N)c2ccncc2)cc1", "Potency": "inconclusive: 29.1 µM [cytotoxic, single point]"},
      {"smiles": "CCOC(=O)C(=CNc1cccnc1Oc1ccc(C)c2c1CCC2)C(=O)OCC", "Potency": "inconclusive: 23.1 µM [cytotoxic, partial curve, poor fit]"},
      {"smiles": "COCCN(C(=O)CCl)C(C(=O)NC1CCCCC1)c1ccccc1C", "note": "(centres undefined)", "Potency": "active: 20.6 µM"},
      {"smiles": "Cc1ccc(C)c(C(=O)CSc2n[nH]c(C(C)C)n2)c1", "Potency": "inconclusive: 32.6 µM [cytotoxic, single point]"},
      {"smiles": "O=C(N/N=C/c1cc(Br)ccc1O)C(c1ccncc1)N1CCOCC1", "note": "(centres undefined)", "Potency": "inconclusive: 14.6 µM [cytotoxic, partial curve]"},
      {"smiles": "O=C1CN2Cc3c(ccc(Cl)c3Cl)N=C2N1", "Potency": "active: 0.164 µM"},
      {"smiles": "CC(C)NC(=O)c1cnc(N2CCN(c3ccccn3)CC2)c2ccccc12", "Potency": "inconclusive: 23.1 µM [cytotoxic, partial curve, poor fit]"},
      {"smiles": "NS(=O)(=O)c1ccc(NC(=O)COC(=O)C2CC2)cc1", "Potency": "inactive"},
      {"smiles": "COc1ccccc1-n1c(=O)[nH]c2c(C(N)=O)nc(-c3cccnc3)nc21", "Potency": "inconclusive: 0.0082 µM [rising, full curve, poor fit]"},
      {"smiles": "c1ccc(C2CNCc3c2ccc2ccccc32)cc1", "note": "(centres undefined)", "Potency": "inconclusive: 18.4 µM [cytotoxic, single point]"},
      {"smiles": "COC(=O)[C@@]12C[C@@H](CC(=O)N3CCSCC3)C(=O)N(CCc3ccc(OC)c(OC)c3)C1=CCC(C)(C)C2", "Potency": "inconclusive: 20.6 µM [cytotoxic, partial curve, poor fit]"},
      {"smiles": "CC(C)Cn1c(N)cc(=O)n(C)c1=O", "Potency": "inconclusive: 29.1 µM [rising, single point]"},
      {"smiles": "O=S(=O)(Nc1cccc(-n2cnnn2)c1)c1ccccc1", "Potency": "inactive"},
      {"smiles": "O=C(CCl)Nc1cc2[nH]c(=O)[nH]c2cc1Br", "Potency": "active: 14.6 µM"},
      {"smiles": "Oc1c(C(c2ccc(F)cc2)N2CCOCC2)sc2nc(-c3ccco3)nn12", "note": "(centres undefined)", "Potency": "inconclusive: 5.8 µM [rising, partial curve, poor fit]"}
    ]}
  ]
}
